Our source for the binding values is PMC12485133.

Amino acid sequences for entries named in this document (tags omitted). A change or cut given only in a name is not applied to a line headed by its entry. Residues count along the entry.
UniProt P84077: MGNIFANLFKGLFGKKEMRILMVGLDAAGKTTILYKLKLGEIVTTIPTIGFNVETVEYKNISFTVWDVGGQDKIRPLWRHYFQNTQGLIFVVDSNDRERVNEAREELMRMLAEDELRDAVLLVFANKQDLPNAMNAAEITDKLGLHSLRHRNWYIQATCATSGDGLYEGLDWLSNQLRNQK
UniProt Q9QWY8, residues 339-451: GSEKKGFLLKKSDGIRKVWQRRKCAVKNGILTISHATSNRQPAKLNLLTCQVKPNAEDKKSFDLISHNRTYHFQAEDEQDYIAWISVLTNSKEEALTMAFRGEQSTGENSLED

In the assay the target is N-myristoylated human Arf1 bound to GTPγS, anchored on nanodiscs (myrArf1·GTPγS) (human) (UniProt P84077). Kind of assay: NMR titration; 1H-13C methyl HMQC (and 1H-15N) spectra of labelled myrArf1·GTPγS with 2H or 1H PH, or of labelled PH with myrArf1, on MSPΔH5 nanodiscs (PC:PI(4,5)P2 95:5), ratio 1:1.2, 25 °C, 20 mM Tris-HCl pH 7.4, 150 mM NaCl, 1 mM MgCl2, 0.5 mM TCEP; CSPs, broadening, intensity ratios with 1H against 2H PH; both purified.

Results are given in words; binding and its absence hold for the method and conditions named. Some binding calls cover weakened binding; strength is not graded here.

Take “ΔN14 ASAP1 PH domain, [339-451]ASAP1 (from UniProt Q9QWY8 339-451) (domain or fragment)”: the binding result is “binds”.
